This is an account of results in paper doi:10.1101/796524.

These are yes or no findings as the source states them, for the method shown. Some entries that bind do so weakly or less than the wild type.

The assay addresses T1, XPF (human) (UniProt Q92889).
T1 sequence: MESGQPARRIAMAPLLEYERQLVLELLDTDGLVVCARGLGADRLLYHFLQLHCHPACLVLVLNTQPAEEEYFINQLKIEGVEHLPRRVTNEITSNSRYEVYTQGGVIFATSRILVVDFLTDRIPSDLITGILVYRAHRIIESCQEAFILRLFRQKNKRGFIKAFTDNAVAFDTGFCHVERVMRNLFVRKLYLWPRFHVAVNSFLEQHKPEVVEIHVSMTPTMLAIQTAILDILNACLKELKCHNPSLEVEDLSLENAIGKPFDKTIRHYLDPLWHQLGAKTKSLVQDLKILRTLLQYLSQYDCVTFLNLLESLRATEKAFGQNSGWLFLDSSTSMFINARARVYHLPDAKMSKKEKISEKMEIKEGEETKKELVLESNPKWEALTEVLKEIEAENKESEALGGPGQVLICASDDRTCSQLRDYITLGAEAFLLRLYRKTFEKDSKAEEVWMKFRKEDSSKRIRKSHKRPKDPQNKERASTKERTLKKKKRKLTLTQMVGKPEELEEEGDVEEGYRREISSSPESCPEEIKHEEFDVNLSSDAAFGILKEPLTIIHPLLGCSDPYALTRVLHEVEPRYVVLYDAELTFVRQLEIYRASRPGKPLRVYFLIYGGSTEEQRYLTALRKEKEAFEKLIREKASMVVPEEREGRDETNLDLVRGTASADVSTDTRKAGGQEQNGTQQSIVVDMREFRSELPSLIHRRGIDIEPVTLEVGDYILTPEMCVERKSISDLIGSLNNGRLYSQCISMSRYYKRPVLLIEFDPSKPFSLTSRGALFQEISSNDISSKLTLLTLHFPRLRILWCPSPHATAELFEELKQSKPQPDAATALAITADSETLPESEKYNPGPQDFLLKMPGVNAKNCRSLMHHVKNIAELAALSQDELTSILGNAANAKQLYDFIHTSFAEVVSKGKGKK
Nature of the assay: co-purification.

B1: SLX4 NTD (residues 1-758) (domain or fragment, UniProt Q8IY92-1 1-758)
chain: MKLSVNEAQLGFYLGSLSHLSACPGIDPRSSEDQPESLKTGQMMDESDEDFKELCASFFQRVKKHGIKEVSGERKTQKAASNGTQIRSKLKRTKQTATKTKTLQGPAEKKPPSGSQAPRTKKQRVTKWQASEPAHSVNGEGGVLASAPDPPVLRETAQNTQTGNQQEPSPNLSREKTRENVPNSDSQPPPSCLTTAVPSPSKPRTAQLVLQRMQQFKRADPERLRHASEECSLEAAREENVPKDPQEEMMAGNVYGLGPPAPESDAAVALTLQQEFARVGASAHDDSLEEKGLFFCQICQKNLSAMNVTRREQHVNRCLDEAEKTLRPSVPQIPECPICGKPFLTLKSRTSHLKQCAVKMEVGPQLLLQAVRLQTAQPEGSSSPPMFSFSDHSRGLKRRGPTSKKEPRKRRKVDEAPSEDLLVAMALSRSEMEPGAAVPALRLESAFSERIRPEAENKSRKKKPPVSPPLLLVQDSETTGRQIEDRVALLLSEEVELSSTPPLPASRILKEGWERAGQCPPPPERKQSFLWEGSALTGAWAMEDFYTARLVPPLVPQRPAQGLMQEPVPPLVPPEHSELSERRSPALHGTPTAGCGSRGPSPSASQREHQALQDLVDLAREGLSASPWPGSGGLAGSEGTAGLDVVPGGLPLTGFVVPSQDKHPDRGGRTLLSLGLLVADFGAMVNNPHLSDVQFQTDSGEVLYAHKFVLYARCPLLIQYVNNEGFSAVEDGVLTQRVLLGDVSTEAARTFLHYLYTA
On to B1, for which the binding result is recorded as “binds”.
